PubChem BioAssay AID1259424 | University of Nebraska Medical Center, 2018
This is one part, drawn at random, of about 14,000 reagents. 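Higher correlation or smaller distance means closer resemblance to KSR1 loss; control wells, including KSR1 knockdowns, recur on many plates.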 The record does not give: the time to read-out.

- Aim: 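Find knockdowns that reproduce the expression shifts seen after KSR1 loss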 (primary screen)
- Cell system: human HCT116 colon cancer cells
- Reagent: siRNA pool against human genes, 50 nM
- Detection: 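Six signature mRNAs by branched-DNA multiplex assay, scaled to two housekeeping genes and non-targeting median, log2; matched to mean KSR1 knockdown profile by Pearson correlation and euclidean distance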
- Direction: mean correlation with KSR1 profile and KSR1 correlation: higher = expression change more like KSR1 knockdown; mean distance from KSR1 profile: higher = expression change less like KSR1 knockdown

| gene | mean correlation with KSR1 profile | mean distance from KSR1 profile | KSR1 correlation, replicate 1 | KSR1 correlation, replicate 2 | KSR1 correlation, replicate 3 |
| --- | --- | --- | --- | --- | --- |
| NFATC3 (nuclear factor of activated T cells 3) | 0.527 | 1.03 | 0.665 | 0.785 | 0.491 |
| SLC25A13 | 0.552 | 2.78 | 0.491 | 0.423 | 0.64 |
| ACTR5 (actin related protein 5) | 0.7 | 0.94 | 0.785 | 0.644 | 0.63 |
| ATP6AP2 (ATPase H+ transporting accessory protein 2) | 0.0124 | 1.93 | 0.144 | -0.0115 | -0.0556 |
| ZNF28 (zinc finger protein 28) | 0.885 | 1.78 | 0.748 | 0.813 | 0.857 |
| OAT (ornithine aminotransferase) | -0.231 | 2.73 | -0.332 | -0.168 | -0.236 |
| PDE2A (phosphodiesterase 2A) | 0.182 | 1.55 | 0.185 | 0.107 | 0.245 |
| ITGB1BP1 (integrin subunit beta 1 binding protein 1) | 0.341 | 3.61 | 0.466 | 0.377 | 0.00514 |
| ZNF10 (zinc finger protein 10) | 0.584 | 0.952 | 0.702 | 0.657 | 0.155 |
| MYLK (myosin light chain kinase) | 0.337 | 1.7 | 0.567 | 0.525 | -0.257 |
| AQP2 (aquaporin 2) | 0.112 | 1.23 | -0.209 | -0.356 | 0.388 |
| LIN7A (lin-7 cell polarity scaffold A) | 0.537 | 1.03 | 0.646 | 0.561 | 0.418 |
| TLE5 (TLE family member 5, transcriptional modulator) | -0.467 | 2.15 | -0.12 | 0.0229 | -0.743 |
| SNCB (synuclein beta) | -0.0143 | 1.54 | 0.183 | -0.0843 | -0.151 |
| SOSTDC1 (sclerostin domain containing 1) | -0.46 | 1.98 | -0.0461 | -0.548 | -0.463 |
| MRPL2 (mitochondrial ribosomal protein L2) | -0.197 | 4.38 | -0.223 | -0.2 | -0.269 |
| TNFSF8 (TNF superfamily member 8) | -0.462 | 2.21 | -0.221 | -0.755 | -0.508 |
| TPTE2 | 0.335 | 1.92 | 0.41 | 0.252 | 0.144 |
| FCF1 (FCF1 rRNA-processing protein) | 0.666 | 1.56 | 0.495 | 0.748 | 0.463 |
| SCPEP1 (serine carboxypeptidase 1) | 0.0567 | 2.86 | 0.0349 | 0.0039 | -0.0782 |
| PLAGL1 (PLAG1 like zinc finger 1) | 0.617 | 1.23 | 0.189 | 0.889 | 0.308 |
| HOXD11 (homeobox D11) | -0.0751 | 3.16 | 0.34 | 0.167 | -0.388 |
| METTL9 (methyltransferase 9, His-X-His N1(pi)-histidine) | -0.0594 | 2.35 | -0.189 | 0.0833 | 0.0788 |
| KCNJ14 (potassium inwardly rectifying channel subfamily J member 14) | -0.442 | 2.15 | -0.474 | -0.513 | -0.399 |
| RARRES1 (retinoic acid receptor responder 1) | -0.343 | 2.43 | -0.409 | -0.396 | -0.251 |

Looked up above:
Under “mean distance from KSR1 profile”, OAT (ornithine aminotransferase) reads 2.73
Under “KSR1 correlation, replicate 2”, SLC25A13 is entered as 0.423
Entry of MYLK (myosin light chain kinase) in “KSR1 correlation, replicate 1”: 0.567
SCPEP1 (serine carboxypeptidase 1), KSR1 correlation, replicate 1 → 0.0349
PDE2A (phosphodiesterase 2A), KSR1 correlation, replicate 1 → 0.185
For “KSR1 correlation, replicate 1”, AQP2 (aquaporin 2) has -0.209

Additional records follow.
| gene | mean correlation with KSR1 profile | mean distance from KSR1 profile | KSR1 correlation, replicate 1 | KSR1 correlation, replicate 2 | KSR1 correlation, replicate 3 |
| --- | --- | --- | --- | --- | --- |
| IDH3G | 0.0206 | 1.29 | -0.259 | -0.24 | 0.293 |
| MST1 (macrophage stimulating 1) | 0.447 | 1.15 | 0.335 | 0.448 | 0.265 |
| HAND1 (heart and neural crest derivatives expressed 1) | 0.681 | 3.1 | 0.742 | 0.629 | 0.668 |
| SDR39U1 (short chain dehydrogenase/reductase family 39U member 1) | -0.701 | 1.83 | -0.375 | -0.547 | -0.709 |
| RAD54L2 (RAD54 like 2) | 0.0828 | 1.12 | 0.218 | -0.134 | 0.0914 |
| OGDHL (oxoglutarate dehydrogenase L) | -0.757 | 2.79 | -0.843 | -0.845 | -0.682 |
| DUSP2 (dual specificity phosphatase 2) | 0.955 | 2 | 0.827 | 0.767 | 0.726 |
| ARAF (A-Raf proto-oncogene, serine/threonine kinase) | 0.316 | 2.19 | 0.376 | 0.108 | 0.254 |
| ESM1 (endothelial cell specific molecule 1) | 0.18 | 1.05 | 0.18 | 0.321 | 0.232 |
| IL12B (interleukin 12B) | -0.102 | 1.74 | -0.221 | -0.166 | 0.0405 |
| TIMM44 (translocase of inner mitochondrial membrane 44) | 0.196 | 2.79 | 0.234 | 0.0343 | 0.276 |
| RIOK2 (RIO kinase 2) | -0.353 | 2.37 | -0.498 | -0.175 | -0.253 |
| TOP2A (DNA topoisomerase II alpha) | -0.532 | 3.06 | -0.609 | -0.348 | -0.578 |
| WRAP53 (WD repeat containing antisense to TP53) | -0.347 | 3.57 | -0.513 | -0.319 | -0.201 |
| HAX1 (HCLS1 associated protein X-1) | -0.227 | 3.49 | -0.21 | -0.255 | -0.12 |
| RING1 (ring finger protein 1) | -0.223 | 1.26 | -0.24 | -0.583 | 0.109 |
| SCCPDH (saccharopine dehydrogenase (putative)) | -0.116 | 1.27 | -0.28 | 0.0786 | -0.0502 |
| GAGE7 (G antigen 7) | -0.15 | 3.24 | -0.336 | 0.0219 | -0.147 |
| CLEC16A (C-type lectin domain containing 16A) | -0.404 | 1.2 | -0.558 | -0.483 | -0.115 |
| DCTN6 (dynactin subunit 6) | 0.000967 | 1.65 | -0.0309 | 0.108 | -0.0394 |
| KIAA0753 | -0.487 | 1.96 | -0.31 | -0.758 | -0.308 |
| LINC00574 (long independently transcribed non-coding RNA 574) | 0.627 | 1.39 | 0.644 | 0.419 | 0.642 |
| FAP (fibroblast activation protein alpha) | -0.161 | 2.85 | -0.223 | -0.157 | -0.147 |
| NECTIN1 (nectin cell adhesion molecule 1) | 0.0699 | 1.89 | 0.183 | 0.0644 | -0.099 |
| CELA2A (chymotrypsin like elastase 2A) | 0.568 | 1.92 | 0.266 | 0.484 | 0.626 |
